In the supplement of paper PMC12889115:
This is one part of the list. These are raw signals, not scaled to a control.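 Primary screen: polymyxin B was added at a level permeabilizing Salmonella outer membranes while sparing inner membranes. DMSO wells, both with and without polymyxin B, established maximum growth. Plate-to-plate variation meant each plate was ranked on its own, and the lowest-OD600 compounds were selected as hits.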

System: Salmonella enterica serovar Typhimurium SL1344
Experiment: bacterial growth OD600 after 18 h with compound and polymyxin B; higher = more bacterial growth (less inhibition)
Conditions: 50 µM, Mueller-Hinton broth

SMILES	bacterial growth OD600 (polymyxin B 1 µg/mL)	bacterial growth OD600 (polymyxin B 0.75 µg/mL)
O=C(Nc1ccnn1C1CCN(C(=O)C#Cc2ccccc2)CC1)C1CCOC1 (stereo not given)	1.06	–
COC(=O)C1CCCCN1C(=O)c1c(OC)cc(=O)n2c1CCN(Cc1ccc(Cl)cc1)CC2 (stereo not given)	–	0.803
COc1cc(CNC2CCCc3c2cnn3-c2ccc(C)c(C)c2)cc2c1OCO2 (stereo not given)	–	0.333
C=C(C)CN(CC)C(=O)CC1C(=O)NCCN1Cc1ccccc1 (stereo not given)	0.962	–
COCC(=O)N(C)C(Cc1ccc(F)cc1)C1CCN(C(=O)CCc2ccccc2OC)CC1 (stereo not given)	–	0.758
COCCNC(=O)c1ccc(OC2CCN(Cc3cccc(C)n3)CC2)c(Cl)c1	0.909	–
CN(Cc1ccsc1)C(=O)CCC1(Cc2ccc(Cl)cc2)CCC(=O)N1 (stereo not given)	–	0.948
Cc1c(F)cccc1CN1CCC(C2CCN(Cc3cccnc3)CC2)C1 (stereo not given)	–	0.776
Cc1ccc(CNC(=O)c2cc(Cn3cnc4ccccc43)on2)s1	–	0.97
Cc1cc(CN2CCCC(CNC(=O)c3ccc(-c4ccccc4)cc3)C2)[nH]n1 (stereo not given)	0.848	–
Cc1ccc(OCc2cc(C(=O)N(C)CCC3CCCCO3)no2)cn1 (stereo not given)	0.921	–
COCCn1cnc2cc(NC(=O)C3CCCCC3)cc(C(=O)N3CCC(C)CC3)c21	–	0.838
CSc1ccc(CN2CCC(CO)(CCOc3ccccc3)CC2)cc1	0.899	–
CCc1cc(CNC(=O)Cn2cc(NC(=O)CCOc3ccccc3)cn2)on1	–	0.839
c1cnn(CC2CCN(c3ccc(-c4nc(C5CC5)no4)cn3)CC2)c1	1.1	–
O=C(c1ccc(NCCO)nc1)N1CCCC(c2ccccc2)CC1 (stereo not given)	1.11	–
COCCCN1C(=O)CC(CC(=O)NCc2cc(F)cc(C(F)(F)F)c2)(c2ccccc2C)C1=O (stereo not given)	–	0.009
CCC1CN(Cc2ccco2)Cc2cc(OC)ccc2O1 (stereo not given)	–	0.803
CCN1CCN(c2ccc(C(=O)NCCCc3ccc(OC)cc3)cn2)CC1	–	0.791
O=C(Nc1cnn(-c2ccc(C(=O)N3CCN(c4ccccc4F)CC3)cc2)c1)C1CCOC1 (stereo not given)	–	0.842

2 consecutive compounds out of the list so far:
SMILES	bacterial growth OD600 (polymyxin B 1 µg/mL)	bacterial growth OD600 (polymyxin B 0.75 µg/mL)
COCC(=O)N(C)C(Cc1ccc(F)cc1)C1CCN(C(=O)CCc2ccccc2OC)CC1 (stereo not given)	–	0.758
COCCNC(=O)c1ccc(OC2CCN(Cc3cccc(C)n3)CC2)c(Cl)c1	0.909	–
